# According to PubChem BioAssay AID493014 (National Center for Advancing Translational Sciences (NCATS), 2011):
# Out of some 340,000 compounds screened, about 170 (0.05%) were called active. The shares of active, inactive and inconclusive entries below differ from those in the screen. The call rests on the fitted dose curve; in most records, active means well fitted inhibition curve with a large enough effect in the signal ratio, with a control signal flat (not every such curve was filed as active); inconclusive means small, poorly fitted or top-dose-only effect, or effect the other way, or a change in a side signal; inactive means flat fitted curve, though single readings scatter; the % refers to the signal ratio. A potency beside an inconclusive call is a rough fit, not a confirmed value.
# Test: qHTS Assay to Find Inhibitors of Chronic Active B-Cell Receptor Signaling;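 on activity change, negative = inhibition: plate controls were basal doxycycline-induced cells for no effect and cells given 10 µM MG132 for full effect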
# Details: ABC-DLBCL IkBa-CBG/CBR reporter, luminescence ratio (green luciferase fused to IkBa over red control in TMD8 lymphoma cells), 4 h; activity change, negative = inhibition: at 46.1 µM (top of the series)
# Method in brief: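 Doxycycline induced both beetle luciferases in TMD8 lymphoma cells; IKK-driven degradation limits the IkappaBalpha-fused green signal, while red luminescence normalises for cell number and nonspecific effects. Compounds tested up to 46 uM, 4 hrs.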
# Potency means the concentration at half of the fitted maximal effect.
Structure (SMILES),"activity change, negative = inhibition",Potency
COc1cc(NC(=O)c2cc3c(Cl)nc4ccccc4c3s2)cc(OC)c1OC,inconclusive: 1.9%,–
CCN(CC)C(=O)Cn1c(C)c(/C=C/c2cc[n+](C)cc2)c2ccccc21,inactive: -0.607%,–
CC(C)(C)C(=O)C(Cl)C(=O)Nc1ccccc1 (centres undefined),inconclusive: -24%,–
CCCCC#Cc1ccc2c(c1)COc1c3ccccc3nn1-2,inactive: 11.3%,–
O=C(Nc1c(F)cc(F)cc1Br)c1cc(-c2ccco2)on1,–,"inconclusive: 3.16 µM [falling, full curve]"
CCCCc1nnc(NC(=O)C=C(C)C)s1,inconclusive: 11.6%,–
COc1ccc(C2(O)CCN(C(=O)c3ccc4c(c3)OCO4)CC2)cc1,inconclusive: 3.89%,–
O=Cc1c[nH]c2cccc(OCc3ccccc3)c12,–,"inconclusive: 29.1 µM [falling, single point]"
C/C(=N\NC1=N[C@H]2CS(=O)(=O)C[C@H]2S1)c1ccccc1,inconclusive: 2.64%,–
CCC(Cc1ccccc1)n1c(=S)[nH]c2ccccc2c1=O (centres undefined),inactive: 28.1%,–
CC(C)(C)c1cc(C(=O)NNc2cc(C(F)(F)F)ccc2Cl)n(Cc2ccccc2)n1,inconclusive: 2.1%,–
O=S(=O)(NCCCCCNS(=O)(=O)c1ccccc1)c1ccccc1,inconclusive: -3.29%,–
NC(=O)SCC(=O)Nc1ccc(Cl)cc1,–,"inconclusive: 11.2 µM [falling, single point]"
C[C@@H](NC(=O)[C@@H]1Cc2ccccc2CN1)C(=O)Nc1ccc2c(c1)OCCO2,–,"inconclusive: 22.4 µM [falling, single point]"
O=C(CSc1ncn[nH]1)N1N=C(c2ccc(Cl)cc2)CC1c1ccco1 (centres undefined),–,"inconclusive: 35.5 µM [falling, single point]"
COc1cccc(N2CC(NC(=O)CCCc3ccccc3)CC2=O)c1 (centres undefined),inconclusive: -4.81%,–
COc1ccc(OC)c(/C=N/NC(=O)c2[nH]nc3c2CCc2ccccc2-3)c1,inconclusive: -22.4%,–
CCCCN1CC2([N+](=O)[O-])C=CC(=O)C([N+](=O)[O-])(C1)C2CC(=O)c1ccccc1 (centres undefined),inconclusive: 10.6%,–
Cc1ccc(C2=Nc3ccccc3SC(c3cccc([N+](=O)[O-])c3)C2)cc1 (centres undefined),–,"inconclusive: 35.5 µM [falling, single point]"
O=C(Cc1ccccc1)Nn1c(O)c(/C=C2\C=Nc3ccccc32)sc1=S,inactive: -7.23%,–
CCOC(=O)c1c(-c2ccccc2)n(C)c2ccc(O)cc12,inconclusive: 17%,–

# 16 compounds from above, sorted by molecular weight, largest number first:
Structure (SMILES),"activity change, negative = inhibition",Potency
CC(C)(C)c1cc(C(=O)NNc2cc(C(F)(F)F)ccc2Cl)n(Cc2ccccc2)n1,inconclusive: 2.1%,–
CCCCN1CC2([N+](=O)[O-])C=CC(=O)C([N+](=O)[O-])(C1)C2CC(=O)c1ccccc1 (centres undefined),inconclusive: 10.6%,–
O=C(CSc1ncn[nH]1)N1N=C(c2ccc(Cl)cc2)CC1c1ccco1 (centres undefined),–,"inconclusive: 35.5 µM [falling, single point]"
O=S(=O)(NCCCCCNS(=O)(=O)c1ccccc1)c1ccccc1,inconclusive: -3.29%,–
C[C@@H](NC(=O)[C@@H]1Cc2ccccc2CN1)C(=O)Nc1ccc2c(c1)OCCO2,–,"inconclusive: 22.4 µM [falling, single point]"
COc1ccc(OC)c(/C=N/NC(=O)c2[nH]nc3c2CCc2ccccc2-3)c1,inconclusive: -22.4%,–
Cc1ccc(C2=Nc3ccccc3SC(c3cccc([N+](=O)[O-])c3)C2)cc1 (centres undefined),–,"inconclusive: 35.5 µM [falling, single point]"
CCN(CC)C(=O)Cn1c(C)c(/C=C/c2cc[n+](C)cc2)c2ccccc21,inactive: -0.607%,–
COc1ccc(C2(O)CCN(C(=O)c3ccc4c(c3)OCO4)CC2)cc1,inconclusive: 3.89%,–
COc1cccc(N2CC(NC(=O)CCCc3ccccc3)CC2=O)c1 (centres undefined),inconclusive: -4.81%,–
C/C(=N\NC1=N[C@H]2CS(=O)(=O)C[C@H]2S1)c1ccccc1,inconclusive: 2.64%,–
CCCCC#Cc1ccc2c(c1)COc1c3ccccc3nn1-2,inactive: 11.3%,–
CCOC(=O)c1c(-c2ccccc2)n(C)c2ccc(O)cc12,inconclusive: 17%,–
CC(C)(C)C(=O)C(Cl)C(=O)Nc1ccccc1 (centres undefined),inconclusive: -24%,–
O=Cc1c[nH]c2cccc(OCc3ccccc3)c12,–,"inconclusive: 29.1 µM [falling, single point]"
NC(=O)SCC(=O)Nc1ccc(Cl)cc1,–,"inconclusive: 11.2 µM [falling, single point]"

# Further compounds:

Structure (SMILES),"activity change, negative = inhibition",Potency
COC(CNC(=O)c1ccc2c3c(onc13)-c1ccccc1C2=O)OC,–,"inconclusive: 4.47 µM [rising, partial curve]"
O=C(/C=C/c1ccc(F)cc1)Nc1ccc2[nH]c(=O)[nH]c2c1,–,"inconclusive: 35.5 µM [falling, partial curve, poor fit]"
Cc1cc(=O)oc2ccc(OCC(=O)NCc3ccco3)cc12,inconclusive: -12.1%,–
CNS(=O)(=O)c1ccc(CCC(=O)N2CCN(c3ccccc3OC)CC2)cc1,–,"inconclusive: 35.5 µM [falling, single point]"
COc1cccc(Nc2sc(C(=O)c3ccc(F)cc3)c(N)c2C(=O)NCc2ccc(Cl)cc2)c1,inconclusive: -4.81%,–
CCOC(=O)c1ccc(NC(=O)CC2SC3=NCCN3C2=O)cc1 (centres undefined),inconclusive: 7.4%,–
Cc1cccc(N2CSC3=C(C#N)C(c4ccc(C)o4)CC(=O)N3C2)c1 (centres undefined),inconclusive: 12.2%,–
Cc1cccc2nc(CSc3ccc(Cl)cc3)cn12,inconclusive: -8.4%,–
S=C(NCCc1ccccc1)NC1CC1,inconclusive: 7.62%,–
COc1ccc(NC(=O)NNC(=O)c2ccc(-c3ccccc3)cc2)c(OC)c1,inconclusive: 1.9%,–
Cc1cccc(C)c1NC(=O)c1cn(-c2ccccc2)nc1-c1ccccc1,inconclusive: 4.47%,–
CCOCCCNc1ncnc2c1cnn2-c1ccc(C)c(C)c1,inconclusive: 12.6%,–
CCCCn1cnc2c(cnn2-c2ccc(F)cc2)c1=O,–,"inconclusive: 15.8 µM [rising, partial curve, poor fit]"
CN(C)c1ccc(/C=N/N(CCC#N)C2=NS(=O)(=O)c3ccccc32)cc1,inconclusive: 7.83%,–
CCCCOC(=O)N/N=C/C=C/c1ccccc1,inactive: -0.223%,–
CCOC(=O)Cc1csc(SCC(=O)Nc2sc3c(c2C(N)=O)CCC3)n1,inconclusive: -0.896%,–
Cc1ccc(S(=O)(=O)N2CCN(C(=O)CSc3nnnn3C)C2)cc1,inconclusive: 6.16%,–
CN(c1ccc(C(=O)N2CCOCC2)cc1)S(=O)(=O)c1ccc(Cl)cc1,inconclusive: -36.4%,–
COC(=O)c1cc2ccsc2n1CC(=O)Nc1cc(C)cc(C)c1,–,"inconclusive: 1.84 µM [falling, partial curve, poor fit]"
COc1ccc(CCN2C(=O)NC(NS(=O)(=O)c3ccc(Cl)cc3)(C(F)(F)F)C2=O)cc1OC (centres undefined),inconclusive: 1.07%,–
CC(C)(C)c1ccc(C(CC(=O)O)NC(=O)c2ccccc2F)cc1 (centres undefined),–,"inconclusive: 5.62 µM [falling, single point]"

Structure (SMILES),"activity change, negative = inhibition",Potency
Cc1ccc(/C=C/C(=O)OCC(=O)NCCN2C(=O)CSC2=O)cc1,inactive: 6.03%,–
Cc1nnc2ccc(-c3ccc(NC(=O)c4ccc(Cl)nc4)cc3)nn12,inconclusive: 8.69%,–
Cc1ccc(-c2c(C)n3c4c(=O)n(C)c(=O)n(C)c4nc3n2CCO)cc1,inactive: -0.59%,–
CCN(Cc1ccncc1)C(=O)c1cc(COc2ccc(F)cc2Cl)on1,inactive: -3.8%,–
CN(C)CCOCCP(=O)(c1ccccc1)c1ccccc1,inactive: -0.707%,–
COCC(C)n1c(SCC(=O)Nc2nccs2)nc2ccccc2c1=O (centres undefined),inconclusive: 10.1%,–
CC(C)CC(=O)/C(=C\c1ccc(Cl)cc1Cl)n1cncn1,–,"inconclusive: 3.66 µM [falling, partial curve, poor fit]"
CCCCN(CCCC)CCNC(=O)c1cn(CC)c2ccc(S(=O)(=O)N(C)C3CCCCC3)cc2c1=O,inactive: 7.7%,–
CCNC(=O)COC(=O)/C=C/c1c(C)nn(Cc2cccc(OC)c2)c1Cl,inconclusive: -0.881%,–
COc1ccc(Cl)cc1S(=O)(=O)n1cnc2ccccc21,inconclusive: -1.11%,–
CCOc1ccc(N2C(=O)C(Cl)=C(Nc3ccccc3O)C2=O)cc1,–,"inconclusive: 0.82 µM [falling, partial curve, poor fit]"
CC1=CC(C)(C)N(C)C(=O)N1c1ccc(Cl)cc1,inconclusive: 14.1%,–
c1ccc(-c2ccccc2OCCOCCN2CCc3ccccc3C2)cc1,inconclusive: -6.5%,–
COc1ccc(C(=O)OCC(=O)Nc2cc(C)c(C)cc2[N+](=O)[O-])cc1,inconclusive: -0.677%,–
Cc1nn(-c2ccccc2)c(C)c1/C=N/O,inactive: -5.92%,–
CCOc1ccccc1NC(=O)C(=O)N/N=C/c1ccc([N+](=O)[O-])cc1,inactive: 0.0202%,–
O=C1c2sc3nc4c(c(=O)n3c2C(=O)N1c1ccccc1)CCC4,inactive: 6.28%,–
CCOC(=O)C1(Cc2cccc(Cl)c2)CCCN(C(=O)c2c(CC)noc2C)C1 (centres undefined),inconclusive: 0.136%,–
CC(/C=N/NC(=O)c1n[nH]c2c1CCC2)=C\c1ccccc1,–,"inconclusive: 0.411 µM [falling, full curve, poor fit]"
O=C(CN1CCN(S(=O)(=O)c2ccc(Br)cc2)CC1)N/N=C/c1ccc(Cl)c([N+](=O)[O-])c1,inconclusive: -18.7%,–
COC(=O)c1c(NC(=O)CN2CCC3(O)CCCCC3C2c2ccc(F)cc2)sc(C)c1C (centres undefined),inconclusive: 8.28%,–

Structure (SMILES),"activity change, negative = inhibition",Potency
Cc1ccc(-c2nc3sc(CCNC(=O)c4ccc(C)c(C)c4)c(C)n3n2)cc1,inactive: -0.687%,–
COC(=O)CCC(=O)Nc1cccc(Cl)c1,–,"inconclusive: 3.66 µM [rising, full curve]"
CC1(C)CC(NC2C3CC4CC(C3)CC2C4)CC(C)(C)N1 (centres undefined),inactive: -12.3%,–
CC(=O)c1ccc(NC(=S)Nc2ccc3cn[nH]c3c2)cc1,–,"inconclusive: 35.5 µM [falling, partial curve, poor fit]"
CCC(=O)NC(c1ccco1)c1cc(Cl)c2cccnc2c1O (centres undefined),inactive: -9.07%,–
Cc1ccc(NC(=O)C(CC(=O)O)C2CCCO2)c(C)c1 (centres undefined),inconclusive: 3.9%,–
CSc1ccccc1OCc1cc(C(=O)NCCN2CCCC(O)C2)no1 (centres undefined),inactive: 0.31%,–
CCCCOc1ccc(C(=O)C(CN2CCOCC2)c2ccccc2)cc1 (centres undefined),inconclusive: -9.17%,–
COc1cccc2c1OCC/C2=N\NC(=O)COc1ccccc1C,inconclusive: 6.34%,–
O=C(Nc1ccc(Cl)cc1)Nc1ccc2c(c1)N1CCN=C1S2,inconclusive: -2.6%,–
CCCCc1cc(=O)oc2c(C)c(OCC(=O)NCCN3CCOCC3)ccc12,inconclusive: -11.2%,–
CCc1nc(Nc2ccc(F)cc2)c2oc3ccccc3c2n1,inconclusive: -4.97%,–
COc1ccc(/C=N\Nc2ccccn2)c(OC)c1,inconclusive: 2.24%,–
CCOC(=O)c1c(NC(=O)CSc2ncccn2)sc2c1CC(C)(C)NC2(C)C,inactive: 1.82%,–
CCOC(=O)c1ccc(NC(=O)CSc2nnc(COc3ccccc3OC)n2C)cc1,inconclusive: 9.18%,–
CCc1sc(N(C(=O)Cc2ccccc2)c2ccccc2F)nc1-c1ccc(C)cc1,inconclusive: -7.45%,–
CN1CCN(c2ccc(NC(=O)COc3ccccc3Cl)cc2)CC1,inactive: 2.98%,–
COc1cccc(OC)c1C(=O)Nc1nc2cc3c(cc2s1)OCO3,inactive: 3.48%,–
Cc1cc(C)n(-c2nncc(-c3ccccc3)n2)n1,–,"inconclusive: 25.1 µM [falling, single point]"
Cc1ccc(CC(=O)O/N=C(\N)c2ccncc2)cc1,inconclusive: 2.37%,–
CN(C)S(=O)(=O)c1cccc(NC(=S)NNC(=O)c2cc3ccccc3cc2O)c1,inconclusive: -3.19%,–
